Results are given in words; binding and its absence hold for the method and conditions named. Binding seen in cells or lysates may run through a third protein. Some entries that bind do so weakly or less than the wild type.
Target: MBP-tagged Imm1 (MXAN_0049) (Myxococcus xanthus DK1622) (UniProt Q1DG91)
Assay: pull-down

Sequences of proteins named here, by UniProt entry; tags and fusion partners are left off.
UniProt Q1DG91: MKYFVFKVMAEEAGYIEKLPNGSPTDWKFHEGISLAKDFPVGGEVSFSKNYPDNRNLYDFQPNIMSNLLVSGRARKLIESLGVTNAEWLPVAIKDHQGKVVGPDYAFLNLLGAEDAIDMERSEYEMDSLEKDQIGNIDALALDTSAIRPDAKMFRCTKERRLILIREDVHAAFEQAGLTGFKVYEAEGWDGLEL
UniProt Q1DG90: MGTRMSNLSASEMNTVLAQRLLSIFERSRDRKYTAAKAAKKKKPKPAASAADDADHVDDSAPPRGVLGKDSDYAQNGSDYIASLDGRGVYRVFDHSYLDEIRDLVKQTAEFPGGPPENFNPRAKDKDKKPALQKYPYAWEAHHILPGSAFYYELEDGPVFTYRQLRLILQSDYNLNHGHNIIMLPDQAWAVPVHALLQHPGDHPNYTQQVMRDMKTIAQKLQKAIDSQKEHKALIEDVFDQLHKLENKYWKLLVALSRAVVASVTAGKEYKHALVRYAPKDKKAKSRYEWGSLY

“SUMO-tagged Toxin1 (MXAN_0050) (from UniProt Q1DG90 1-294) (enzyme)” was tested, and the binding was “binds”.
